Read-outs that look alike come from different tables or passages of the source. Some entries share one result that the patent states for a list of compounds.
Tested on: cucumber powdery mildew fungus (Sphaerotheca fuliginea, a QoI-resistant strain, cytochrome b position 143 glycine to alanine)
Type: in vivo
Conditions: cucumber SAGAMI HANJIRO, 8 days

SMILES | area of lesion spots relative to that on an untreated plant (200 ppm foliar spray) [%] | area of lesion spots relative to that on an untreated plant (500 ppm foliar spray) [%]
Cc1ccnc(-c2ccc(OCc3ccccc3-n3nnn(C)c3=O)c(C)c2)n1 [Present Compound 95] | ≤ 30 | 
Cc1nccc(-c2ccc(OCc3c(C4CC4)cccc3-n3nnn(C)c3=O)c(C)c2)n1 [Present Compound 79] | ≤ 30 | ≤ 30
CCc1cccc(-n2nnn(C)c2=O)c1COc1ccc(-c2ncccn2)cc1C [Present Compound 84] | ≤ 30 | ≤ 30
Cc1cc(-c2ncccc2C#N)ccc1OCc1c(C)cccc1-n1nnn(C)c1=O [Present Compound 150] | ≤ 30 | ≤ 30
Cc1ccc(Br)c(-c2ccc(OCc3c(C)cccc3-n3nnn(C)c3=O)c(C)c2)n1 [Present Compound 146] | ≤ 30 | ≤ 30
Cc1cc(-c2ccccn2)c(F)cc1OCc1c(C)cccc1-n1nnn(C)c1=O [Present Compound 194] | ≤ 30 | ≤ 30
CCc1cccc(-c2ccc(OCc3ccccc3-n3nnn(C)c3=O)c(C)c2)n1 [Present Compound 44] | ≤ 30 | ≤ 30
Cc1cc(-c2cccc(Cl)n2)c(C)cc1OCc1c(C)cccc1-n1nnn(C)c1=O [Present Compound 158] | ≤ 30 | ≤ 30
CCc1cccc(-n2nnn(C)c2=O)c1COc1ccc(-c2cccc(C#N)n2)cc1C [Present Compound 115, 1-{3-ethyl-2-[2-methyl-4-(6-cyanopyridin-3-yl)-phenoxymethyl]-phenyl}-4-methyl-1,4-dihydrotetrazol-5-one] | ≤ 30 | ≤ 30
Cc1cc(OCc2c(C)cccc2-n2nnn(C)c2=O)c(F)cc1-c1ccccn1 [Present Compound 187] | ≤ 30 | ≤ 30
Cc1ccc(-c2cc(C)c(OCc3c(C)cccc3-n3nnn(C)c3=O)cc2C)nn1 [Present Compound 235] | ≤ 30 | ≤ 30
Cc1cc(-c2ncccc2F)c(C)cc1OCc1c(C)cccc1-n1nnn(C)c1=O [Present Compound 179] | ≤ 30 | ≤ 30
Cc1nccc(-c2ccc(OCc3ccccc3-n3nnn(C)c3=O)c(C)c2)n1 [Present Compound 81] | ≤ 30 | ≤ 30
Cc1cccc(-c2ccc(OCc3c(C)cccc3-n3nnn(C)c3=O)c(Br)c2)n1 [Present Compound 61] | ≤ 30 | ≤ 30
Cc1ccc(-c2ccc(OCc3ccccc3-n3nnn(C)c3=O)c(C)c2)cn1 [Present Compound 75] | ≤ 30 | ≤ 30
COc1ccnc(-c2cc(C)c(OCc3c(C)cccc3-n3nnn(C)c3=O)cc2C)c1 [Present Compound 188] | ≤ 30 | ≤ 30
COc1ncccc1-c1cc(C)c(OCc2c(C)cccc2-n2nnn(C)c2=O)cc1C [Present Compound 193] | ≤ 30 | ≤ 30
Cc1ccnc(-c2ccc(OCc3c(C)cccc3-n3nnn(C)c3=O)c(C)c2)c1 [Present Compound 20] | ≤ 30 | ≤ 30
COc1cccc(-n2nnn(C)c2=O)c1COc1ccc(-c2cc(Cl)ccn2)cc1C [Present Compound 13] | ≤ 30 | ≤ 30
C#CCOc1ccc(-c2ccc(OCc3c(C)cccc3-n3nnn(C)c3=O)c(C)c2)nn1 [Present Compound 104, 1-{3-methyl-2-[2-methyl-4-(6-propargyloxypyridazin-3-yl)-phenoxymethyl]-phenyl}-4-methyl-1,4-dihydrotetrazol-5-one] | ≤ 30 | 
Cc1cc(-c2ncccn2)ccc1OCc1c(C2CC2)cccc1-n1nnn(C)c1=O [Present Compound 85] | ≤ 30 | ≤ 30
CCc1cccc(-c2ccc(OCc3c(CC)cccc3-n3nnn(C)c3=O)c(C(F)(F)F)c2)n1 [Present Compound 132] | ≤ 30 | ≤ 30
Cc1cc(-c2ccc(F)cn2)c(C)cc1OCc1c(C2CC2)cccc1-n1nnn(C)c1=O [Present Compound 219] | ≤ 30 | ≤ 30
CCOc1cccc(-n2nnn(C)c2=O)c1COc1ccc(-c2ccccn2)cc1C [Present Compound 8] | ≤ 30 | ≤ 30

SMILES | area of lesion spots relative to that on an untreated plant (200 ppm foliar spray) [%] | area of lesion spots relative to that on an untreated plant (500 ppm foliar spray) [%]
Cc1cc(-c2cncc(Cl)c2)ccc1OCc1c(C)cccc1-n1nnn(C)c1=O [Present Compound 110] |  | ≤ 30
Cc1ccnc(-c2ccc(OCc3c(Cl)cccc3-n3nnn(C)c3=O)c(C)c2)c1 [Present Compound 24] | ≤ 30 | ≤ 30
COc1ccc(-c2cc(C)c(OCc3c(C)cccc3-n3nnn(C)c3=O)cc2C)nc1 [Present Compound 186] | ≤ 30 | ≤ 30
Cc1cccc(-c2ccc(OCc3ccccc3-n3nnn(C)c3=O)c(C(F)(F)F)c2)n1 [Present Compound 127] | ≤ 30 | ≤ 30
CCOc1cccc(-n2nnn(C)c2=O)c1COc1ccc(-c2cccc(Cl)n2)cc1C [Present Compound 41] | ≤ 30 | 
Cc1cc(Cl)nc(-c2ccc(OCc3c(C)cccc3-n3nnn(C)c3=O)c(C)c2)c1 [Present Compound 184] | ≤ 30 | ≤ 30
Cc1ccc(-c2ccc(OCc3c(C)cccc3-n3nnn(C)c3=O)c(C)c2)nn1 [Present Compound 234] |  | ≤ 30
Cc1cc(OCc2c(C)cccc2-n2nnn(C)c2=O)c(F)cc1-c1cccc(Cl)n1 [Present Compound 189] | ≤ 30 | ≤ 30
Cc1cccc(-c2ccc(OCc3c(Cl)cccc3-n3nnn(C)c3=O)c(C)c2)n1 [Present Compound 54] | ≤ 30 | ≤ 30
Cc1cccc(-c2ccc(OCc3c(C)cccc3-n3nnn(C)c3=O)c(Cl)c2)n1 [Present Compound 57] | ≤ 30 | ≤ 30
COc1cccc(-n2nnn(C)c2=O)c1COc1ccc(-c2ccc(Cl)cn2)cc1C [Present Compound 26] | ≤ 30 | ≤ 30
COc1cccc(-n2nnn(C)c2=O)c1COc1ccc(-c2nccc(C)n2)cc1C [Present Compound 90] | ≤ 30 | ≤ 30
Cc1cc(-c2nccc(C#N)n2)ccc1OCc1c(C)cccc1-n1nnn(C)c1=O [Present Compound 197] | ≤ 30 | 
Cc1ccnc(-c2ccc(OCc3c(C4CC4)cccc3-n3nnn(C)c3=O)c(C(F)(F)F)c2)n1 [Present Compound 135] | ≤ 30 | ≤ 30
Cc1cc(-c2cc(C#N)ccn2)ccc1OCc1c(C)cccc1-n1nnn(C)c1=O [Present Compound 119] | ≤ 30 | ≤ 30
Cc1cc(-c2cccc(Cl)n2)ccc1OCc1c(C)cccc1-n1nnn(C)c1=O [Present Compound 37] | ≤ 30 | ≤ 30
Cc1cc(-c2ccc(Cl)cn2)c(C)cc1OCc1c(C)cccc1-n1nnn(C)c1=O [Present Compound 162] | ≤ 30 | ≤ 30
CCc1ccnc(-c2ccc(OCc3ccccc3-n3nnn(C)c3=O)c(C)c2)n1 [Present Compound 141] | ≤ 30 | ≤ 30
Cc1cccc(-n2nnn(C)c2=O)c1COc1cc(Cl)c(-c2ccccn2)cc1Cl [Present Compound 210] | ≤ 30 | ≤ 30
Cc1ccc(-c2ccc(OCc3c(C)cccc3-n3nnn(C)c3=O)c(C)c2)nc1 [Present Compound 31] | ≤ 30 | ≤ 30
Cc1cc(OCc2c(C)cccc2-n2nnn(C)c2=O)c(Cl)cc1-c1cccc(Cl)n1 [Present Compound 191] | ≤ 30 | ≤ 30
Cc1cc(C#N)nc(-c2ccc(OCc3c(C)cccc3-n3nnn(C)c3=O)c(C)c2)c1 [Present Compound 144] |  | ≤ 30
CCc1cccc(-c2ccc(OCc3c(Cl)cccc3-n3nnn(C)c3=O)c(C)c2)n1 [Present Compound 46] | ≤ 30 | ≤ 30

Source: patent US9888688B2, “Tetrazolinone compounds and applications thereof” (Sumitomo Chemical Company, Limited, priority 2013, dated 2018)
